Publication PMC4219662
No constants are given. Whether binding was seen depends on the method and setting. Binding seen in cells or lysates may run through a third protein. A yes stands for co-enrichment or nearness to the bait. Other partners may have been found. For some assays here: No binding means not detected with the bait.

Chains of the proteins cited; added tags and fusions are not shown. Lines headed by an entry give the natural chain unless they say otherwise; changes in a name come on top.
UniProt P18824: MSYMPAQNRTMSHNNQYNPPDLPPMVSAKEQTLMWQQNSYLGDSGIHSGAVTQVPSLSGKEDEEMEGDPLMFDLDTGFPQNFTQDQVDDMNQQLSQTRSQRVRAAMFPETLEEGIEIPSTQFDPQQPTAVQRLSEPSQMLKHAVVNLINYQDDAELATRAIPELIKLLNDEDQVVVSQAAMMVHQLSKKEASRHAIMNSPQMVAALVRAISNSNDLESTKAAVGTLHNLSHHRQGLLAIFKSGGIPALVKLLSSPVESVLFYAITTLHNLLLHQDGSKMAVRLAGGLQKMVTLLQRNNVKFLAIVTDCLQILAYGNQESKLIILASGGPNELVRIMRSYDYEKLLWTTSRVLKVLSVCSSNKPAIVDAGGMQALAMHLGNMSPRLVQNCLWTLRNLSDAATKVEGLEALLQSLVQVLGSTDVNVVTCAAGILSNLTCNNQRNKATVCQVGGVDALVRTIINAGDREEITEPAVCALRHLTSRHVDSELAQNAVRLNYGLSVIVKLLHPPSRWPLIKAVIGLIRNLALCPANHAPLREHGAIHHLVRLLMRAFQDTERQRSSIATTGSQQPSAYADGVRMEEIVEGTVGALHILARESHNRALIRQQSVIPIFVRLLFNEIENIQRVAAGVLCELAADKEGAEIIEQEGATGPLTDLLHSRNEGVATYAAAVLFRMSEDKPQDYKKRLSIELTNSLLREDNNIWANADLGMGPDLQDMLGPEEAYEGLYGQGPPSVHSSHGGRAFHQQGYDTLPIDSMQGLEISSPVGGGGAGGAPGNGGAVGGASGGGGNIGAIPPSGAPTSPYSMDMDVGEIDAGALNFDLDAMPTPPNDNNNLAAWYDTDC
UniProt E2QCH8: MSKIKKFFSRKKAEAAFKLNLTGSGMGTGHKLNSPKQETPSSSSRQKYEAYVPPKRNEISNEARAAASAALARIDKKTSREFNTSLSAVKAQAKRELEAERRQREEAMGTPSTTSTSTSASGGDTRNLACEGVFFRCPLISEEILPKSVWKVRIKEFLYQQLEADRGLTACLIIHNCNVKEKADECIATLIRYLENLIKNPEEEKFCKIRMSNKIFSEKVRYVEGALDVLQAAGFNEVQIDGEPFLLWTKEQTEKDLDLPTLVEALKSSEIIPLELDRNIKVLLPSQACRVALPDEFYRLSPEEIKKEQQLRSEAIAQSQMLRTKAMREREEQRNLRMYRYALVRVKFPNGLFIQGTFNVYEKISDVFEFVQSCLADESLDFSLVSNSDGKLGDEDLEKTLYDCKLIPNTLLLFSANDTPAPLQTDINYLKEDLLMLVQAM
UniProt P18431: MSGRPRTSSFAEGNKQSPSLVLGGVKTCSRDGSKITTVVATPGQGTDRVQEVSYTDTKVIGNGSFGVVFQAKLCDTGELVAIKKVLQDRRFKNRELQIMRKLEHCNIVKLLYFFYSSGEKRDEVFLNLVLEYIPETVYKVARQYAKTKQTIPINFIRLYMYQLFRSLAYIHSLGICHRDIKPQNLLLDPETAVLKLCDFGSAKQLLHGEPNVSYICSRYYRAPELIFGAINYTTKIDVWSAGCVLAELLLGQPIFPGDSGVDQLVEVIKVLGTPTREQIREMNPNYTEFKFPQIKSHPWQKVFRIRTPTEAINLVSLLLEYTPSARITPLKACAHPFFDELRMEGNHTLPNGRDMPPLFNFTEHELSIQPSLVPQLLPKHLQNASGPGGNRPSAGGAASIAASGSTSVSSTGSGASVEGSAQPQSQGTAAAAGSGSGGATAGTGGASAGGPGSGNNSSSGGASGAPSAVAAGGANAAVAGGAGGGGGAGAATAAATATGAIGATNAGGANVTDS
UniProt Q7KN62: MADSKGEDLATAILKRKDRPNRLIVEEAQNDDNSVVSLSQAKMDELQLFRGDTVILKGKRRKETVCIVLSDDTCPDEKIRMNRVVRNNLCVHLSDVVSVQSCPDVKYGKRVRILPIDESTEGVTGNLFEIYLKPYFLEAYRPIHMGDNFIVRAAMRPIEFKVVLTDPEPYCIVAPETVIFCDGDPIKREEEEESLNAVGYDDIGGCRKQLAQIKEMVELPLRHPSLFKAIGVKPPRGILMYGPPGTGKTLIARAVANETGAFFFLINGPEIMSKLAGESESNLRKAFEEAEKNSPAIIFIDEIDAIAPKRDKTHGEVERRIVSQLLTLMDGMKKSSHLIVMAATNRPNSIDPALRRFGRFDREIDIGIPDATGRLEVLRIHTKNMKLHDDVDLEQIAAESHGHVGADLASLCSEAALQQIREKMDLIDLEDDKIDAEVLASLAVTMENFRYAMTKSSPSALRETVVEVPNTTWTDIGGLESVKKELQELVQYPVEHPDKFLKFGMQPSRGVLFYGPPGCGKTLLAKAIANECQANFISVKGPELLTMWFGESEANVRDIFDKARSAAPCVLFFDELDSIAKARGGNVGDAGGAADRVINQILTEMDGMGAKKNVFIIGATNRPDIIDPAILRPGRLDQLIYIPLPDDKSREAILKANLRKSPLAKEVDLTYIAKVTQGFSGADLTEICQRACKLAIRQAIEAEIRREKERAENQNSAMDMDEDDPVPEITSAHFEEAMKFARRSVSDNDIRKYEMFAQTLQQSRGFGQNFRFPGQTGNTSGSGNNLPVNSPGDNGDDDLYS

How the values were obtained:
[1] = biological target: Arm used as bait (Drosophila) (UniProt P18824); assay: affinity purification with mass spectrometry; shotgun affinity purification mass spectrometry with Arm or Arm^S10 as bait; cytoplasm
[2] = biological target: Als^HA (Armless with C-terminal triple HA-tag) (Drosophila melanogaster) (UniProt E2QCH8); assay: affinity purification with mass spectrometry; HA-tagged variants of Als expressed in Kc-167 cells, anti-HA affinity purification, shotgun LC-MS/MS; three independent experiments; with and without stimulation of the Wg pathway by Wg
[3] = biological target: Als^HA (Armless with C-terminal triple HA-tag) (Drosophila melanogaster) (UniProt E2QCH8); assay: affinity purification with mass spectrometry; selected reaction monitoring; Als and Ter94 used as bait

binding [1] | Molecule | other results
binds | Sgg (Shaggy/GSK3β) (from UniProt P18431 1-514) (enzyme) | 
 | endogenous Ter94 (from UniProt Q7KN62 1-801) (enzyme) | binding [2]: binds
no binding | endogenous Als (from UniProt E2QCH8) | 
 | Armadillo (Arm), sought as prey (from UniProt P18824 1-843) | binding [3]: no binding
binds | Axin (protein, UniProt Q9V407 1-745) MSGHPSGIRKHDDNECSGPRPPVPGEESRVKKMTEGVADTSKNSSPSYLNWARTLNHLLEDRDGVELFKKYVEEEAPAYNDHLNFYFACEGLKQQTDPEKIKQIIGAIYRFLRKSQLSISDDLRAQIKAIKTNPEIPLSPHIFDPMQRHVEVTIRDNIYPTFLCSEMYILYIQQMSAQQERCTSSGATGSGSAGSSGSGGSSLAGACALPPTTASGKQQLPQLVPPGAFINLPVSSVSGPPAGTCSASGSVYGPSTSASSSGSISATDTLPRSSTLPTLHEDSVLSLCDDFEKVQMQEGGGSLGSGSVGAGARAPDYPIRLTRDLLIATQKRRLEIRPPGAHGYVYNPSTTNTSYVPNSRVDSERASVSSGGRTDSDTMSISSCSMDGRPYIQRRHSSTESKAIRQSAMANKETNTFQVIPRTQRLHSNEHRPLKEEELVSLLIPKLEEVKRKRDLEERARERNPGAALLTNERSSASDRAFAEAIREKFALDEDNDQDILDQHVSRVWKDQTPHRSPGTMSPCPPIPSRRRTATHDSGMVSDGAMSLSGHSMKHSKSMPDHSSCSRKLTNKWPSMNTDSGISMFSADTVTKYKDASSRSGSSTASKLEEAKRRLEDEPRRSRRYAQPPMQHLSQQPLASFSSSSSGGSISLPHQPPPLPAKPPETIVVFSFCEEPVPYRIKIPGTQPTLRQFKDYLPRRGHFRFFFKTHCEDPDSPVIQEEIVNDSDILPLFGDKAMGLVKPSD | 
